Assay results taken from patent US20220403048A1, “BINDING MOLECULES TO ARGINASE II [ARG2]” (Cancer Research Technology Limited, priority 2019, published 2022).

Tested on: ARG2
Assay: Immunoprecipitation and Western blotting of ARG2 released into cell conditioned medium of cancer cell lines
Design: species or system human; key: ‘+’ indicates presence of ARG2; ‘+++’ indicates high levels of ARG2; ‘+/−’ ARG2 presence could not be unambiguously established; ‘−’ no ARG2 was detected

B1: ARG2 (protein)
chain: VHSVAVIGAPFSQGQKRKGVEHGPAAIREAGLMKRLSSLGCHLKDFGDLSFTPVPKDDLYNNLIVNPRSVGLANQELAEVVSRAVSDGYSCVTLGGDHSLAIGTISGHARHCPDLCVVWVDAHADINTPLTTSSGNLHGQPVSFLLRELQDKVPQLPGFSWIKPCISSASIVYIGLRDVDPPEHFILKNYDIQYFSMRDIDRLGIQKVMERTFDLLIGKRQRPIHLSFDIDAFDPTLAPATGTPVVGGLTYREGMYIAEEIHNTGLLSALDLVEVNPQLATSEEEAKTTANLAVDVIASSFGQTREGGHIVYDQLPTPSSPDESENQARVRI
modifications: left off: small tags and cut ends
With B1 the “ARG2 detected by IP-WB” value (CCM of A673 (Sarcoma)) was “+++”, the “ARG2 detected by IP-WB” value (CCM of A2780-ADR (Ovarian)) was “+” and the “ARG2 detected by IP-WB” value (CCM of A2780-Cis (Ovarian)) was “+++”. The “ARG2 detected by IP-WB” value (CCM of A2780-Parental (Ovarian)) was “+”, the “ARG2 detected by IP-WB” value (CCM of AGS (Gastric)) was “+” and the “ARG2 detected by IP-WB” value (CCM of DU145 (Prostate)) was “−”. The “ARG2 detected by IP-WB” value (CCM of DX3 (Skin)) was “+/−”, the “ARG2 detected by IP-WB” value (CCM of HL-60 (Haematopoietic and Lymphoid)) was “+/−” and the “ARG2 detected by IP-WB” value (CCM of HPAF-II (Pancreatic)) was “+/−”. The “ARG2 detected by IP-WB” value (CCM of HT-1080 (Sarcoma)) was “−”, the “ARG2 detected by IP-WB” value (CCM of HuTu-80 (Gastric)) was “+” and the “ARG2 detected by IP-WB” value (CCM of K562 (Haematopoietic and Lymphoid)) was “−”. The “ARG2 detected by IP-WB” value (CCM of KATO-III (Gastric)) was “+”, the “ARG2 detected by IP-WB” value (CCM of KMS11 (Haematopoietic and Lymphoid)) was “+” and the “ARG2 detected by IP-WB” value (CCM of LNCaP (Prostate)) was “+++”. The “ARG2 detected by IP-WB” value (CCM of MDA-MB-231 (Breast)) was “−”, the “ARG2 detected by IP-WB” value (CCM of NCI-N87 (Gastric)) was “−” and the “ARG2 detected by IP-WB” value (CCM of OVCAR-3 (Ovarian)) was “+/−”. The “ARG2 detected by IP-WB” value (CCM of PC3 (Prostate)) was “−”, the “ARG2 detected by IP-WB” value (CCM of PNT2 (normal prostate epithelium)) was “−” and the “ARG2 detected by IP-WB” value (CCM of SKOV-3 (Ovarian)) was “−”. The “ARG2 detected by IP-WB” value (CCM of SNU-1 (Gastric)) was “−”, the “ARG2 detected by IP-WB” value (CCM of SNU-5 (Gastric)) was “+/−” and the “ARG2 detected by IP-WB” value (CCM of SNU-16 (Gastric)) was “+”. For the same molecule, the “ARG2 detected by IP-WB” value (CCM of Saos-2 (Sarcoma)) was “+” and the “ARG2 detected by IP-WB” value (CCM of U2-OS (Sarcoma)) was “−”.
